In patent publication US10487113B2 (CAREGEN CO., LTD., priority 2014, dated 2019):

Test: general procedure: peptide synthesis; chloro trityl chloride resin (CTL resin, Nova Biochem Cat No. 01-64-0021)
Details: whole synthesis; for crude yield: scale of the general procedure 700 mg resin

Substance | crude mass [g] | crude yield [%]
H-CPRHFNPVC-OH (cysteine pairing not given here) | 0.7 | 95
H-CTKIYDPVC-OH (cysteine pairing not given here) | 0.5 | 95
